This assay deals with heat shock cognate 70 kDa protein cpHSC70-1 (Arabidopsis) (UniProt Q9STW6). The assay is described as follows: split reporter; the two split YFP/BiFC constructs of cpHSC70-1 co-expressed with NSP:CFP and PDCB1:mCherry in leaf tissues of locally AbMV-infected N. benthamiana, 4 days post agro-infiltration, epi-fluorescence microscopy.

Our source for the binding values is PMC3530832.

No constants are given. Whether binding was seen depends on the method and setting. In cells and extracts the contact can be indirect. Some entries that bind do so weakly or less than the wild type.

B1: heat shock cognate 70 kDa protein cpHSC70-1 (protein, UniProt Q9STW6 93-718)
chain: AAMEGGKPTIVTNAEGQRTTPSVVAYTKSGDRLVGQIAKRQAVVNPENTFFSVKRFIGRKMNEVDEESKQVSYRVVRDENNNVKLECPAINKQFAAEEISAQVLRKLVDDASRFLNDKVTKAVITVPAYFNDSQRTATKDAGRIAGLEVLRIINEPTAASLAYGFDRKANETILVFDLGGGTFDVSVLEVGDGVFEVLSTSGDTHLGGDDFDKRVVDWLAAEFKKDEGIDLLKDKQALQRLTEAAEKAKIELSSLTQTNMSLPFITATADGPKHIETTLTRAKFEELCSDLLDRVRTPVENSLRDAKLSFKDIDEVILVGGSTRIPAVQELVRKVTGKEPNVTVNPDEVVALGAAVQAGVLAGDVSDIVLLDVTPLSIGLETLGGVMTKIIPRNTTLPTSKSEVFSTAADGQTSVEINVLQGEREFVRDNKSLGSFRLDGIPPAPRGVPQIEVKFDIDANGILSVSAVDKGTGKKQDITITGASTLPKDEVDQMVQEAERFAKDDKEKRDAIDTKNQADSVVYQTEKQLKELGEKIPGEVKEKVEAKLQELKDKIGSGSTQEIKDAMAALNQEVMQIGQSLYNQPGAGGPGAGPSPGGEGASSGDSSSSKGGDGDDVIDADFTDSQ
For B1, the binding entry was “binds”.
